{"sequences": {"note": "By UniProt entry, the sequences of proteins in these tests, tags left out.", "UniProt P54845": "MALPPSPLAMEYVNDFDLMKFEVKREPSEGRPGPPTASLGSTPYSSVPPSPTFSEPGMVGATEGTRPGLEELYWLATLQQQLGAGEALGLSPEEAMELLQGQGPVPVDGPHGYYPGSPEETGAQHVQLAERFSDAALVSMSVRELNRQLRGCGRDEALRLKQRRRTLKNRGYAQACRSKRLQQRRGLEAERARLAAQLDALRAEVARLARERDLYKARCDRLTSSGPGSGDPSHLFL", "UniProt F1N4J1": "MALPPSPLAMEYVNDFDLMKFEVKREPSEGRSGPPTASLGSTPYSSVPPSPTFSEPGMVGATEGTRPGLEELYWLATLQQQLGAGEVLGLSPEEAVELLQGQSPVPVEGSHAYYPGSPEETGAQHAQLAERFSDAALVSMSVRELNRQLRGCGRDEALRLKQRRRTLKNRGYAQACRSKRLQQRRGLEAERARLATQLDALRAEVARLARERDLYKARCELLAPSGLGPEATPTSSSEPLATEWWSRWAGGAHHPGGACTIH", "UniProt Q08211": "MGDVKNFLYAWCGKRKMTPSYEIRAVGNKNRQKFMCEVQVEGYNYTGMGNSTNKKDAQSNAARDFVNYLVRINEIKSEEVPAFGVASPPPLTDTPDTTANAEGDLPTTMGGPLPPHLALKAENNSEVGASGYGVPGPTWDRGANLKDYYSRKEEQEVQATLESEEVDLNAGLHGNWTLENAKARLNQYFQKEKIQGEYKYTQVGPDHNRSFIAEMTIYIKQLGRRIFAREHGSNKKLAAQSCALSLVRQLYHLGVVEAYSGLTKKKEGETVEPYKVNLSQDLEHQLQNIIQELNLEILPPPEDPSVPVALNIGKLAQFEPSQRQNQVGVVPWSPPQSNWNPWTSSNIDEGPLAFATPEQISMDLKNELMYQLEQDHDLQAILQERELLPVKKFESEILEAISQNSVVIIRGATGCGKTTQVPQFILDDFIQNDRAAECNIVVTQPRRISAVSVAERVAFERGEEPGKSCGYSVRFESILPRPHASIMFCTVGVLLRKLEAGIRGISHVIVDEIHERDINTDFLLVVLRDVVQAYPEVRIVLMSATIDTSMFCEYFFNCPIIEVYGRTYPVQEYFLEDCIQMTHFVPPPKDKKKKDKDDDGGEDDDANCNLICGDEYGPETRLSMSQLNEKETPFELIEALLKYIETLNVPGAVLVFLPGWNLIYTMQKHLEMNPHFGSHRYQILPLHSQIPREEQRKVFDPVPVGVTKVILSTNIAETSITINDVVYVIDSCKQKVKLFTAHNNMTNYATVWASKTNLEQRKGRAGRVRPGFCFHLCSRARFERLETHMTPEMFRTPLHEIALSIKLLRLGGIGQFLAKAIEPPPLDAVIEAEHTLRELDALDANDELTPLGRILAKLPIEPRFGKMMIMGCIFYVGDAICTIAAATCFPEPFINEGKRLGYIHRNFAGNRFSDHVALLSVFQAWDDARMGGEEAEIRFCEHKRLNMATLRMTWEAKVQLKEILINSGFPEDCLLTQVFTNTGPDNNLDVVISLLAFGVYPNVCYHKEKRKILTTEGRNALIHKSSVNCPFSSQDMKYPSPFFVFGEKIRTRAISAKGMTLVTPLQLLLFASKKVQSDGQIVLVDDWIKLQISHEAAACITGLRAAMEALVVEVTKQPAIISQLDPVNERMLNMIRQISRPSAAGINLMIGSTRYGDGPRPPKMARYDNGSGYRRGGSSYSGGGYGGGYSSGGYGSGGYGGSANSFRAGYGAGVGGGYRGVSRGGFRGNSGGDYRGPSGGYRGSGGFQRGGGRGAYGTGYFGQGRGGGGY", "UniProt Q28141": "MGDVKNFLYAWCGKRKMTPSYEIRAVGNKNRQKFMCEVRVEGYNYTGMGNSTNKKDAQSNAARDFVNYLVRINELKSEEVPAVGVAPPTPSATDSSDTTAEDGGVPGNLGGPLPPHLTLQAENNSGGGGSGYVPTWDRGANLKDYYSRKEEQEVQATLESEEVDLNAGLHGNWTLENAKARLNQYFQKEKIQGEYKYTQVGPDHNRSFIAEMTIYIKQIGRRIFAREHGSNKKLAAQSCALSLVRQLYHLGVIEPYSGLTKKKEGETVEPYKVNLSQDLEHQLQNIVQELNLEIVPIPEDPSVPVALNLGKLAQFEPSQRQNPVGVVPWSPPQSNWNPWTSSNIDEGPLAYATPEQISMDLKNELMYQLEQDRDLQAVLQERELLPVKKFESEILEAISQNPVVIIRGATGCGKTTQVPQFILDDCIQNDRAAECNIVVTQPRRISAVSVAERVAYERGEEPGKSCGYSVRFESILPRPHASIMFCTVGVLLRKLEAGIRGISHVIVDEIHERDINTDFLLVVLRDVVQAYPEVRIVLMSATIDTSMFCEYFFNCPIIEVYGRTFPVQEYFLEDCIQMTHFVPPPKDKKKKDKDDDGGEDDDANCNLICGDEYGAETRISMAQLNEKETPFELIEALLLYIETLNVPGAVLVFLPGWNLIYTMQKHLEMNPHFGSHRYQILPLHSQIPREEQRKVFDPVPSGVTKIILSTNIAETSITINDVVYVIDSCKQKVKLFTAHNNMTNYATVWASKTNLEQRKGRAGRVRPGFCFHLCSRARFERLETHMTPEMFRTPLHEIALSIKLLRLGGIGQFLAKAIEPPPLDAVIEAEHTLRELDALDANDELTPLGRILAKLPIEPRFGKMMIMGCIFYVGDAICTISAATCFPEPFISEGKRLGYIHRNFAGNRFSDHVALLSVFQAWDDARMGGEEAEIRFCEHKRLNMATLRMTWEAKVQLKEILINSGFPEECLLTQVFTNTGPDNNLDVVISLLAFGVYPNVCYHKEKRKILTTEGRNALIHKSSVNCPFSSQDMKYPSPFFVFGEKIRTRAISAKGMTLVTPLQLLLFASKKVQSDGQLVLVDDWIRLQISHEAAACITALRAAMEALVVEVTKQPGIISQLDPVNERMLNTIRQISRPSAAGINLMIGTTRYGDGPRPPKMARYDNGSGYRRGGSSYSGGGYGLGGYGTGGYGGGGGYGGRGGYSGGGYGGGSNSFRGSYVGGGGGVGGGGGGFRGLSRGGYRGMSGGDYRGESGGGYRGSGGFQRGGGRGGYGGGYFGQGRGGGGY", "UniProt P54846": "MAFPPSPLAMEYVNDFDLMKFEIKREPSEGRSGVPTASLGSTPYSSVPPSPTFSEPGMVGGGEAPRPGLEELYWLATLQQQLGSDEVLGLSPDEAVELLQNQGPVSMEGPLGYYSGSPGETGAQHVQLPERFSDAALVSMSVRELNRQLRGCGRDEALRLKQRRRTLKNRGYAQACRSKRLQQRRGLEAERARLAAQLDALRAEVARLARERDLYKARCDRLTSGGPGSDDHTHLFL", "UniProt P09867": "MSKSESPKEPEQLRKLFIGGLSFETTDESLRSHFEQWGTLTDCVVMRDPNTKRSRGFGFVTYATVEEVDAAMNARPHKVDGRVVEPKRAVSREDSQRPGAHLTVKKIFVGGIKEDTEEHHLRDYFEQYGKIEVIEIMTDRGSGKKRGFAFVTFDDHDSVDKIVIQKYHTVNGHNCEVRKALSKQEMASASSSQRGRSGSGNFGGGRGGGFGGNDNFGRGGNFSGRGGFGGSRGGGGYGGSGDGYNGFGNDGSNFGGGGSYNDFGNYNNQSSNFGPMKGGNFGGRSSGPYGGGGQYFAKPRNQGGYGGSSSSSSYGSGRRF", "UniProt P17844": "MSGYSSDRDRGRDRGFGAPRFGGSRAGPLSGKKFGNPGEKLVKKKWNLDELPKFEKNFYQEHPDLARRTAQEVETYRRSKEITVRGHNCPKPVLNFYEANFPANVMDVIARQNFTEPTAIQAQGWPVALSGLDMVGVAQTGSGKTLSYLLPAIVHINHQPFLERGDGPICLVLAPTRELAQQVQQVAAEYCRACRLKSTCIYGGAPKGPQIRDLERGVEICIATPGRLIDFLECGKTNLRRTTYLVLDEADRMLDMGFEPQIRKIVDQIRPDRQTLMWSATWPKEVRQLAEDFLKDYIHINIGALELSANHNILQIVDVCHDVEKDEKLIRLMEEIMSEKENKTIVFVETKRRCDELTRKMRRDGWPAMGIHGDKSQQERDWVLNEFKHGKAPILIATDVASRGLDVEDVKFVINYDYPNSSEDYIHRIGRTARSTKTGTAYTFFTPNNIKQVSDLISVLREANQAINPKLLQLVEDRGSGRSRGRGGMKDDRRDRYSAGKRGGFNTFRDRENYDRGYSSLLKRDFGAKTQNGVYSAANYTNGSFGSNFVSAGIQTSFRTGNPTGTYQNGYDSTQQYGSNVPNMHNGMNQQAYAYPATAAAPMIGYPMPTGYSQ", "UniProt Q2HJ60": "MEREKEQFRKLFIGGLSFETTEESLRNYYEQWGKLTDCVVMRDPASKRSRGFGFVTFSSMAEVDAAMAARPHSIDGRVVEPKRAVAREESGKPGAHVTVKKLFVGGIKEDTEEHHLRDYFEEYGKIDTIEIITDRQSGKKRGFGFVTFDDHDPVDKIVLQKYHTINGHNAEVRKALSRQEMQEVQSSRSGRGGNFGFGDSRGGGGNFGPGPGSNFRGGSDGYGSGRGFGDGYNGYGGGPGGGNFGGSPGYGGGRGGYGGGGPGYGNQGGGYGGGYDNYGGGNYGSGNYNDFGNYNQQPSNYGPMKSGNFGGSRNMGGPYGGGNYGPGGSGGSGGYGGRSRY", "UniProt A0A3Q1M155": "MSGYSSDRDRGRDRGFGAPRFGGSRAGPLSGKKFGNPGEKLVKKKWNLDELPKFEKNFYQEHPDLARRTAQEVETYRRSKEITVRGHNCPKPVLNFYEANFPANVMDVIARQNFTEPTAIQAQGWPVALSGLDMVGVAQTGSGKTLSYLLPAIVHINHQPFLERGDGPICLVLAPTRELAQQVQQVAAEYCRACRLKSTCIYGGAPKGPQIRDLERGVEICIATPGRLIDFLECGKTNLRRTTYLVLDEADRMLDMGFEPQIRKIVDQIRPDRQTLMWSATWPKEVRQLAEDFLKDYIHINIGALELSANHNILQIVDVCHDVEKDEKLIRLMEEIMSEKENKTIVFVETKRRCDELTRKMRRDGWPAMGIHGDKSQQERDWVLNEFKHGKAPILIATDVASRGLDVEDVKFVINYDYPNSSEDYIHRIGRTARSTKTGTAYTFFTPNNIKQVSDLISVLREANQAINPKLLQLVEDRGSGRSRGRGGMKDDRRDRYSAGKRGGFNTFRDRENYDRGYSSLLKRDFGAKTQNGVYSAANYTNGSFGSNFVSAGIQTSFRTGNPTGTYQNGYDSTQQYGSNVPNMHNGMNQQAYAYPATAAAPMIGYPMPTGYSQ", "UniProt O70133": "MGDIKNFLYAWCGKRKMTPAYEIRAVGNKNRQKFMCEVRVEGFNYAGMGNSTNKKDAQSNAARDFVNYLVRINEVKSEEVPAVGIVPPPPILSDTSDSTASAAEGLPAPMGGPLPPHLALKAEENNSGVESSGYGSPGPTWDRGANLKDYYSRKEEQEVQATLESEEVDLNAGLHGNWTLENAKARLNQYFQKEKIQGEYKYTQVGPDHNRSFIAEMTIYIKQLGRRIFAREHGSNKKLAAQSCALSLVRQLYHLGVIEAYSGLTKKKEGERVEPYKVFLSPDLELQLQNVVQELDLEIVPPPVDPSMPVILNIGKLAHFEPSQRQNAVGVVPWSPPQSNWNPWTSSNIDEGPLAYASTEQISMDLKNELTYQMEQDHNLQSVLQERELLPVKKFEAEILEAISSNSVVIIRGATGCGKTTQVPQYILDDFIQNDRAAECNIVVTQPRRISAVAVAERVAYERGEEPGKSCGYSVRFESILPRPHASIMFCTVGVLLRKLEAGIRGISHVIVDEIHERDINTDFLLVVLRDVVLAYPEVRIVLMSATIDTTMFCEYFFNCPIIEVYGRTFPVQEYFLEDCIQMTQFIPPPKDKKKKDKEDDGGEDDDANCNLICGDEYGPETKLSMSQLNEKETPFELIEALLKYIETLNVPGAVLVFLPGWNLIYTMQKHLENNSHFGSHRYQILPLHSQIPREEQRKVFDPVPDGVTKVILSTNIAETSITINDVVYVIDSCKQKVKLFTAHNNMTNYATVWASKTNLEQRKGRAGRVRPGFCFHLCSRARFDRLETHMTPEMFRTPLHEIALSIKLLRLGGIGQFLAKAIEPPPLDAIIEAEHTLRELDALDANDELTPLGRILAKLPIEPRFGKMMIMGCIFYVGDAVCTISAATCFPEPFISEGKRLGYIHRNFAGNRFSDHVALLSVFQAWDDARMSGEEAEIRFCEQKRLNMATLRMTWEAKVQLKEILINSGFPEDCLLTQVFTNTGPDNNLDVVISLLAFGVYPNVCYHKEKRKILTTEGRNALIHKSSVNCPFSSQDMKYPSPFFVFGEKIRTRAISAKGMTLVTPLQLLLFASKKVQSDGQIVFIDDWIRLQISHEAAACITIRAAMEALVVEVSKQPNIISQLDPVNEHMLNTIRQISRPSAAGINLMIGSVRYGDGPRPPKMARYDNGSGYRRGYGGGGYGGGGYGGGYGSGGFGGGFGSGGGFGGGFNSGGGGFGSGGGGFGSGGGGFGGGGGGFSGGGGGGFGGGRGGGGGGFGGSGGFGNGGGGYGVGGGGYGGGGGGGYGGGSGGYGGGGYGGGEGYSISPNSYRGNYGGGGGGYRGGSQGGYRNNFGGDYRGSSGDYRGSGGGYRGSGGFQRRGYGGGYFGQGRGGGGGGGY"}, "source": "paper doi:10.1101/2024.09.19.613899", "key": {"[1]": {"biological_target": "human NRL fused to GST (human) (UniProt P54845)", "test": "pull-down; GST-NRL on Glutathione Sepharose beads incubated 2 hr at 4°C with nuclear fraction from bovine retina, with or without 25 U of benzonase; washes in PBS with 1% Triton X-100; immunoblot; purified GST as control; only the target purified"}, "[2]": {"biological_target": "NRL (bovine retina) (bovine (endogenous in bovine retina)) (UniProt F1N4J1)", "test": "co-IP; nuclear fraction of bovine retina in co-IP binding buffer, sonicated; lysates treated 30 min at 37°C with RNaseOUT (control), RNase A or RNase H; IP with NRL, DHX9 or DDX5 antibody on Dynabeads Protein A overnight at 4°C; immunoblot"}, "[3]": {"biological_target": "DHX9 (HEK293 cells) (human (endogenous in HEK293)) (UniProt Q08211)", "test": "co-IP; HEK293 cells overexpressing NRL, lysed in 40 mM Tris-HCl pH 8.0, 150 mM NaCl, 2 mM EDTA, 0.2% NP-40; lysates treated 30 min at 37°C with RNaseOUT (control), RNase A, RNase H or DNase I; IP with NRL, DHX9 or DDX5 antibody on Dynabeads Protein A overnight at 4°C; immunoblot"}, "[4]": {"biological_target": "DHX9 RNA helicase (bovine retina) (bovine (endogenous in bovine retina)) (UniProt Q28141)", "test": "co-IP; nuclear fraction of bovine retina in co-IP binding buffer, sonicated; lysates treated 30 min at 37°C with RNaseOUT (control), RNase A or RNase H; IP with NRL, DHX9 or DDX5 antibody on Dynabeads Protein A overnight at 4°C; immunoblot"}, "[5]": {"biological_target": "NRL (mouse retina) (mouse (endogenous in mouse retina)) (UniProt P54846)", "test": "proximity ligation; Duolink PLA on adult mouse retina sections with anti-NRL and anti-DHX9 or anti-DDX5 antibodies; Nrl KO retina as control"}}, "note": "These are yes or no findings as the source states them, for the method shown. In cells and extracts the contact can be indirect. Some results given as binding are weak or reduced against the parent protein; the word gives no strength.", "data": [{"substance": "HNRNPA1 (bovine retina) (from UniProt P09867 1-320)", "values": [{"measurement": "binding", "setting": "[1]", "result": "binds"}]}, {"substance": "DHX9 RNA helicase (bovine retina) (from UniProt Q28141 1-1287)", "values": [{"measurement": "binding", "setting": "[2]", "result": "binds"}, {"measurement": "binding", "setting": "[1]", "result": "binds"}]}, {"substance": "DDX5 (HEK293 cells) (from UniProt P17844 1-614)", "values": [{"measurement": "binding", "setting": "[3]", "result": "binds"}]}, {"substance": "HNRNPA2B1 (bovine retina) (from UniProt Q2HJ60 1-341)", "values": [{"measurement": "binding", "setting": "[1]", "result": "binds"}]}, {"substance": "NRL (bovine retina) (from UniProt F1N4J1 1-262)", "values": [{"measurement": "binding", "setting": "[4]", "result": "binds"}]}, {"substance": "Xpress-tagged human NRL (from UniProt P54845 1-237)", "values": [{"measurement": "binding", "setting": "[3]", "result": "binds"}]}, {"substance": "DDX5 (bovine retina) (from UniProt A0A3Q1M155 1-614)", "values": [{"measurement": "binding", "setting": "[2]", "result": "binds"}, {"measurement": "binding", "setting": "[4]", "result": "binds"}]}, {"substance": "DHX9 (mouse retina) (from UniProt O70133 1-1380)", "values": [{"measurement": "binding", "setting": "[5]", "result": "binds"}]}]}
